The results in this text go back to paper PMC4601075, “Specific binding of eukaryotic ORC to DNA replication origins depends on highly conserved basic residues” (Scientific Reports, 2015).

Results are given in words; binding and its absence hold for the method and conditions named. Some binding calls cover weakened binding; strength is not graded here. Tags and fused reporters may be left off the sequences shown.

For the experiment, the target named is T1, ScOrc1-TEV-His (S. cerevisiae), P54784.
T1 chain: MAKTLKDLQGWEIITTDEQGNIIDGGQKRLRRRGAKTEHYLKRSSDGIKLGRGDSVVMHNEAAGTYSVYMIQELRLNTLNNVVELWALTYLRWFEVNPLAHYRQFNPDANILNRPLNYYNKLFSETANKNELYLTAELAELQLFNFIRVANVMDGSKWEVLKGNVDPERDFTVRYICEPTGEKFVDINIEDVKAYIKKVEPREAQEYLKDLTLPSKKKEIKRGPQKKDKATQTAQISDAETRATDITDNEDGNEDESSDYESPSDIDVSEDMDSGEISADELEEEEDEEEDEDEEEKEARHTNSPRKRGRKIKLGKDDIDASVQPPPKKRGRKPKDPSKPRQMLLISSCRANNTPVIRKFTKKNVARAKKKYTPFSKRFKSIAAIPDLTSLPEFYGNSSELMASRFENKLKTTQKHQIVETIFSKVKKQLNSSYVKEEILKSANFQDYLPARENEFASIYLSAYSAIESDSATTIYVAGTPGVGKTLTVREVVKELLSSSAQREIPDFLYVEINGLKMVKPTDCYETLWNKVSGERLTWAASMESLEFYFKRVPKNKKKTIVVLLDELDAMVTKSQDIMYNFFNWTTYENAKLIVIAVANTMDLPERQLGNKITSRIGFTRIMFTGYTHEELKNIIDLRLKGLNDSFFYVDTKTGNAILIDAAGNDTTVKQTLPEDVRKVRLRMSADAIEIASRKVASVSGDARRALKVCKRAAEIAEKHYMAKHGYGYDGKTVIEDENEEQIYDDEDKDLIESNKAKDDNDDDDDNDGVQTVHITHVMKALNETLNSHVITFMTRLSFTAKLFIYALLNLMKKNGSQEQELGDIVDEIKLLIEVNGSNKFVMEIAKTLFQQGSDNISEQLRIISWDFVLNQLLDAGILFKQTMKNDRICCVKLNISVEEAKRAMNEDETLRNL
Description: co-purification (affinity column, then gel filtration); Orc1-TEV-His co-overexpressed with Orc2/3/4/5/6 in 293T cells; affinity-purified, fractionated on Superdex 200; fractions on 9% SDS-PAGE, Coomassie staining. Conditions: remark: other sources report otherwise. For orientation: In gel filtration, larger molecules generally elute earlier.

B1: ScOrc2, P32833 1-620 (protein)
chain: MLNGEDFVEHNDILSSPAKSRNVTPKRVDPHGERQLRRIHSSKKNLLERISLVGNERKNTSPDPALKPKTPSKAPRKRGRPRKIQEELTDRIKKDEKDTISSKKKRKLDKDTSGNVNEESKTSNNKQVMEKTGIKEKREREKIQVATTTYEDNVTPQTDDNFVSNSPEPPEPATPSKKSLTTNHDFTSPLKQIIMNNLKEYKDSTSPGKLTLSRNFTPTPVPKNKKLYQTSETKSASSFLDTFEGYFDQRKIVRTNAKSRHTMSMAPDVTREEFSLVSNFFNENFQKRPRQKLFEIQKKMFPQYWFELTQGFSLLFYGVGSKRNFLEEFAIDYLSPKIAYSQLAYENELQQNKPVNSIPCLILNGYNPSCNYRDVFKEITDLLVPAELTRSETKYWGNHVILQIQKMIDFYKNQPLDIKLILVVHNLDGPSIRKNTFQTMLSFLSVIRQIAIVASTDHIYAPLLWDNMKAQNYNFVFHDISNFEPSTVESTFQDVMKMGKSDTSSGAEGAKYVLQSLTVNSKKMYKLLIETQMQNMGNLSANTGPKRGTQRTGVELKLFNHLCAADFIASNEIALRSMLREFIEHKMANITKNNSGMEIIWVPYTYAELEKLLKTVLNTL
On to B1, for which the binding result is reported as “binds”.

B2: ScOrc6, P38826 1-435 (protein)
chain: MSMQQVQHCVAEVLRLDPQEKPDWSSGYLKKLTNATSILYNTSLNKVMLKQDEEVARCHICAYIASQKMNEKHMPDLCYYIDSIPLEPKKAKHLMNLFRQSLSNSSPMKQFAWTPSPKKNKRSPVKNGGRFTSSDPKELRNQLFGTPTKVRKSQNNDSFVIPELPPMQTNESPSITRRKLAFEEDEDEDEEEPGNDGLSLKSHSNKSITGTRNVDSDEYENHESDPTSEEEPLGVQESRSGRTKQNKAVGKPQSELKTAKALRKRGRIPNSLLVKKYCKMTTEEIIRLCNDFELPREVAYKIVDEYNINASRLVCPWQLVCGLVLNCTFIVFNERRRKDPRIDHFIVSKMCSLMLTSKVDDVIECVKLVKELIIGEKWFRDLQIRYDDFDGIRYDEIIFRKLGSMLQTTNILVTDDQYNIWKKRIEMDLALTEPL
Consider B2, for which the binding result is reported as “binds”.
